These are yes or no findings as the source states them, for the method shown. Binding seen in cells or lysates may run through a third protein. These calls come from enrichment with a bait or labelling near it, and not all partners need be listed. For some assays here: A no says only that the protein was not detected with the bait.
Tests used:
[1] = target: T1, S100A14 (human (endogenous in SCC15)) (UniProt Q9HCY8); assay: affinity purification with mass spectrometry; immunoprecipitation with anti-S100A14 from wild-type SCC15 cell lysate, TMT proteomics and LC-MS
T1 sequence: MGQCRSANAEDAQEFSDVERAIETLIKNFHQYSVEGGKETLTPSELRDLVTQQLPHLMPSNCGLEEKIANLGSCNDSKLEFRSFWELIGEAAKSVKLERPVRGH

Sequences of proteins named here, by UniProt entry; tags and fusion partners are left off.
UniProt P22314: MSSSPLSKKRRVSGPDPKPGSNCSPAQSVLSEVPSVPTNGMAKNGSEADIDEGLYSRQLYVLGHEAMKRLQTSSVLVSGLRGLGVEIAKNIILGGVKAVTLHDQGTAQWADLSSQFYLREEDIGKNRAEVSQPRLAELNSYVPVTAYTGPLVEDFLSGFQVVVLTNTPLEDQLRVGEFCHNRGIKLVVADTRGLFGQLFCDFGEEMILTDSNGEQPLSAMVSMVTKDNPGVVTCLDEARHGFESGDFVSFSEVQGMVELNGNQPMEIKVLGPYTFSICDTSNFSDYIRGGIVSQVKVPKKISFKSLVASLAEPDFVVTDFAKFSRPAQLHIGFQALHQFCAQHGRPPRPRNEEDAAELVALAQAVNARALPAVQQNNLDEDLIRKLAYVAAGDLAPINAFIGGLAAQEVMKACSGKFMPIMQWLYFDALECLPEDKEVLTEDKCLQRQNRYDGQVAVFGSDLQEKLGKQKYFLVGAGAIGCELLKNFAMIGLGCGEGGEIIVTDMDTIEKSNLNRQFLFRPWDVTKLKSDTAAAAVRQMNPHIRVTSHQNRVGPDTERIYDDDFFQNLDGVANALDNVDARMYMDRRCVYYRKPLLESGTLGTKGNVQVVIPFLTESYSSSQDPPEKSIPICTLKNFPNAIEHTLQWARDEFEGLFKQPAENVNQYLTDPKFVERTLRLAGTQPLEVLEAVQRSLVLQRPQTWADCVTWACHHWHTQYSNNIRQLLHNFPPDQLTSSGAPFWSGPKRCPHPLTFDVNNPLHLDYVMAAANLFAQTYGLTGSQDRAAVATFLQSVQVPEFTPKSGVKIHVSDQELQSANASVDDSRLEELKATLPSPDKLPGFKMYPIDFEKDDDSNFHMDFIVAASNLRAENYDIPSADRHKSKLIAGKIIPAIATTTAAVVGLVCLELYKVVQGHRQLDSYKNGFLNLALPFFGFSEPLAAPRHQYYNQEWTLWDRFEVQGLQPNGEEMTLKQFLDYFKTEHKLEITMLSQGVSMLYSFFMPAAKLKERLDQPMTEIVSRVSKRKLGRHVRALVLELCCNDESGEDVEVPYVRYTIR

[2] = target: T1, S100A14 (human (endogenous in SCC15)); assay: condition: only in CAV2-silenced (shCAV2) SCC15 cells; affinity purification with mass spectrometry; immunoprecipitation with anti-S100A14 from shCAV2 (CAV2-silenced) SCC15 cell lysate, TMT proteomics and LC-MS

binding [1]: binds
binding [2]: no binding
Substance: E1 ubiquitin-activating enzyme UBE1 (from UniProt P22314 1-1058)

— paper PMC9481523
